Test [1] concerns the target Fatty Acid Synthase (FASN) (human (endogenous in RKO E6 and HT29)) (UniProt P49327). Put plainly: co-IP; reciprocal immunoprecipitation of RKO E6 and HT29 cell lysates with antibodies against USP22 and FASN, immunoblotting; IgG as isotype control. In general terms: In western blotting, separated proteins are transferred to a membrane and probed.
The target in the next test is Flag-FASN (human) (UniProt P49327). The test can be described thus: co-IP; 293T cells co-transfected with HA-USP22 and Flag-tagged FASN constructs; lysates immunoprecipitated (anti-Flag antibody in Fig. 2C), immunoblotting.

Chains of the proteins cited; added tags and fusions are not shown.
UniProt P49327: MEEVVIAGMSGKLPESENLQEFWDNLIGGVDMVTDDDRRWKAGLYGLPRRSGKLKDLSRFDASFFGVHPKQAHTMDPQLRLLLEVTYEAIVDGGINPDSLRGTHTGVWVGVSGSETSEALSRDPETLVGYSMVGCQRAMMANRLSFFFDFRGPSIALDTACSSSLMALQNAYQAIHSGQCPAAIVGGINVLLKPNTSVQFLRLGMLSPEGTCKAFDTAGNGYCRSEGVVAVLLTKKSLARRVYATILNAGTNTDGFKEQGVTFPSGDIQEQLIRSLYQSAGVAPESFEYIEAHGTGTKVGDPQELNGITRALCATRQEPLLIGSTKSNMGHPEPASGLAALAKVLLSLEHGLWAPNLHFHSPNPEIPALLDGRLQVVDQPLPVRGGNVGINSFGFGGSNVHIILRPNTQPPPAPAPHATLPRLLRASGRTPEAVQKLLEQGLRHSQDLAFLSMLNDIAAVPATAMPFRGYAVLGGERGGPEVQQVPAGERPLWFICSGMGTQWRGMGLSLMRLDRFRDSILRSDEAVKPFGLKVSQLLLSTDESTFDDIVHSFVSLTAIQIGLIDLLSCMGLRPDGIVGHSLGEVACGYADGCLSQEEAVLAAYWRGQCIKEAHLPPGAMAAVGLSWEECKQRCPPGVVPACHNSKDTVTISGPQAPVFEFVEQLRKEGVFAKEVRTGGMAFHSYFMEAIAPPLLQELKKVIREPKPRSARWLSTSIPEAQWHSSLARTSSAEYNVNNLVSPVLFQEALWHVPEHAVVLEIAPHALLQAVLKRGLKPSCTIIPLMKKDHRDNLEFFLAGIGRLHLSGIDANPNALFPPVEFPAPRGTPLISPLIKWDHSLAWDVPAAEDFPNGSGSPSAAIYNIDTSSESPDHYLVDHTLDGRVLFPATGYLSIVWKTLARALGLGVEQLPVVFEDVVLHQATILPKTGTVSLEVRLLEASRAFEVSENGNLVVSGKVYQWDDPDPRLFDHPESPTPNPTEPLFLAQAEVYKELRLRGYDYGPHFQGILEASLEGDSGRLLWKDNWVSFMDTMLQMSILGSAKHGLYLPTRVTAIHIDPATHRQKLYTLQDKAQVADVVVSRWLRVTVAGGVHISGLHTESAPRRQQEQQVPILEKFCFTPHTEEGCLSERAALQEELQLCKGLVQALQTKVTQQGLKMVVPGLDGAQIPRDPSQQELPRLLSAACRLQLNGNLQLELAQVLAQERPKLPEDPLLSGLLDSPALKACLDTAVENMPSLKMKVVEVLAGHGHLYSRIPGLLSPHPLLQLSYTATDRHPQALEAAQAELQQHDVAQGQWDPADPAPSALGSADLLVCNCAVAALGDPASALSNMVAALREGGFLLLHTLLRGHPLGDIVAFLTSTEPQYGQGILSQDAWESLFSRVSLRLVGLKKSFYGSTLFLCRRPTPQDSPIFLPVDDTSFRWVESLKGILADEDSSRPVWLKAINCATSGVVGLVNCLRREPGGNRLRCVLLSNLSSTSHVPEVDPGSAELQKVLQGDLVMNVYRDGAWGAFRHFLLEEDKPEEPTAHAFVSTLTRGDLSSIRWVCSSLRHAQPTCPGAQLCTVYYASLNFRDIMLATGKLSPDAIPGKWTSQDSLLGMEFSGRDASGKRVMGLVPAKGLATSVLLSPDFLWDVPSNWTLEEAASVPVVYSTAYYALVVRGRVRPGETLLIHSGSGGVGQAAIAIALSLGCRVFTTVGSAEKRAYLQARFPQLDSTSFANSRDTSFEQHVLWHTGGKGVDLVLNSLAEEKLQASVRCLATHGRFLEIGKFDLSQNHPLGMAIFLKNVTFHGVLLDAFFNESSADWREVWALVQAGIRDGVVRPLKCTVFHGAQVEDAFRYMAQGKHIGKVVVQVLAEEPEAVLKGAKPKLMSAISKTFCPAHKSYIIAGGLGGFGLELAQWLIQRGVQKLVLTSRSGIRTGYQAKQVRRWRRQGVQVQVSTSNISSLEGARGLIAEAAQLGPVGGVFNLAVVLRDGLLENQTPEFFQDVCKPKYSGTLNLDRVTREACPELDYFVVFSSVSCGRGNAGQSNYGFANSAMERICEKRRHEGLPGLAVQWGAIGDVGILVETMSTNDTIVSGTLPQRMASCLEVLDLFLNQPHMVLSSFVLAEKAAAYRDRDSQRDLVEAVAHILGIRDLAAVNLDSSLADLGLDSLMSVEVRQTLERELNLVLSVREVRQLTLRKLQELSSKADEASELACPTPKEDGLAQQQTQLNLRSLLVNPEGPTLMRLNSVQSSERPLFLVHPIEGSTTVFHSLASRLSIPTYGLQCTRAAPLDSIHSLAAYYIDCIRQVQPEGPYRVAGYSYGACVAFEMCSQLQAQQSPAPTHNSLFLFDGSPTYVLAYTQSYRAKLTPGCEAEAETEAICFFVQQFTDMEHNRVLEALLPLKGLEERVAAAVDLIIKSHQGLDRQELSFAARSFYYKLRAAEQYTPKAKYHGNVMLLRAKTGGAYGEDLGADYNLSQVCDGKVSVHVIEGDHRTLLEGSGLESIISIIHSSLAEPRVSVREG

No constants are given. Whether binding was seen depends on the method and setting. Binding seen in cells or lysates may run through a third protein. Some binding calls cover weakened binding; strength is not graded here. For some assays here: Sequences can lack the tags named with a protein.

B1: USP22 (enzyme, UniProt Q9UPT9 1-525)
chain: MVSRPEPEGEAMDAELAVAPPGCSHLGSFKVDNWKQNLRAIYQCFVWSGTAEARKRKAKSCICHVCGVHLNRLHSCLYCVFFGCFTKKHIHEHAKAKRHNLAIDLMYGGIYCFLCQDYIYDKDMEIIAKEEQRKAWKMQGVGEKFSTWEPTKRELELLKHNPKRRKITSNCTIGLRGLINLGNTCFMNCIVQALTHTPLLRDFFLSDRHRCEMQSPSSCLVCEMSSLFQEFYSGHRSPHIPYKLLHLVWTHARHLAGYEQQDAHEFLIAALDVLHRHCKGDDNGKKANNPNHCNCIIDQIFTGGLQSDVTCQVCHGVSTTIDPFWDISLDLPGSSTPFWPLSPGSEGNVVNGESHVSGTTTLTDCLRRFTRPEHLGSSAKIKCSGCHSYQESTKQLTMKKLPIVACFHLKRFEHSAKLRRKITTYVSFPLELDMTPFMASSKESRMNGQYQQPTDSLNNDNKYSLFAVVNHQGTLESGHYTSFIRQHKDQWFKCDDAIITKASIKDVLDSEGYLLFYHKQFLEYE
For the molecule B1, in test [1], the binding result is recorded as “binds”.

B2: HA-USP22 (enzyme, UniProt Q9UPT9 1-525)
chain: MVSRPEPEGEAMDAELAVAPPGCSHLGSFKVDNWKQNLRAIYQCFVWSGTAEARKRKAKSCICHVCGVHLNRLHSCLYCVFFGCFTKKHIHEHAKAKRHNLAIDLMYGGIYCFLCQDYIYDKDMEIIAKEEQRKAWKMQGVGEKFSTWEPTKRELELLKHNPKRRKITSNCTIGLRGLINLGNTCFMNCIVQALTHTPLLRDFFLSDRHRCEMQSPSSCLVCEMSSLFQEFYSGHRSPHIPYKLLHLVWTHARHLAGYEQQDAHEFLIAALDVLHRHCKGDDNGKKANNPNHCNCIIDQIFTGGLQSDVTCQVCHGVSTTIDPFWDISLDLPGSSTPFWPLSPGSEGNVVNGESHVSGTTTLTDCLRRFTRPEHLGSSAKIKCSGCHSYQESTKQLTMKKLPIVACFHLKRFEHSAKLRRKITTYVSFPLELDMTPFMASSKESRMNGQYQQPTDSLNNDNKYSLFAVVNHQGTLESGHYTSFIRQHKDQWFKCDDAIITKASIKDVLDSEGYLLFYHKQFLEYE
For the molecule B2, the binding result with Flag-FASN (human) is on record as “binds”.

Source of the values: article PMC9636132.
